Measurements reported in patent publication US20240043512A1.
These are yes or no findings as the source states them, for the method shown. Some binding calls cover weakened binding; strength is not graded here.

Tests used:
[1] = target: T1, AS-SPIK (Abnormal Secreted SPIK), native, purified from the medium of S2-3 cells (human) (UniProt P00995); experiment: binding test (FIG. 5)
T1 sequence: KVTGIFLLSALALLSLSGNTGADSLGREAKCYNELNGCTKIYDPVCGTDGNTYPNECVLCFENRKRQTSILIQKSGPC

[2] = target: T1, AS-SPIK (Abnormal Secreted SPIK), native, purified from the medium of S2-3 cells (human); experiment: ELISA, plate coated with native AS-SPIK, HRP-labelled antibody
[3] = target: T1, AS-SPIK (Abnormal Secreted SPIK), native, purified from the medium of S2-3 cells (human); experiment: sandwich ELISA on native AS-SPIK from S2-3 cells, capture antibody and HRP-labelled signal antibody

Measured: binding

B1: IM-C6 (antibody, V domains shown)
VH: QSVKESEGGLFKPTDALTLTCTVSGFSLSSYAISWVRQAPGSGLEWIGAINTYGGTYYASWAKSRSTITRNTNENTVTLKMTSLTAADTATYFCARDFDSDAYTSASGGMDWGPGTLVTVSS
VL: AYDMTQTPASVEVAVGGTVTIKCQASQSINNYLSWYQQIPGQPPKLLIYRASTLASGVSSRFKGSGSGTQFTLTISGVQCADAATYYCQQGYTSNVDNVFGGGTEVVVKG
binds: all assays above

B2: IM-A1 (antibody, V domains shown)
VH: QSVKESEGGLFKPTDTLTLTCTVSGFSLSSNAISWVRQAPGNGLEWIGAIGSSGSTYYASWAKSRSTVTRNTNLNTVTLKMTSLTAADTATYFCARWENIGYTNVRLDLWGQGTLVTVSS
VL: AYDMTQTPASVEVAVGGTVTIKCQASQSISTALAWYQQKPGQPPKLLIYGASTLASGVSSRFKGSGSGTQFTLTISGVECADAATYYCQQGYSTSDVDNAFGGGTEG
binds: all assays above

B3: IM-E2 (antibody, V domains shown)
VH: QSVKESEGGLFKPTDTLTLTCTVSGFSLSAYAISWVRQAPGNGLEWIGAINSGGSAYYANWAKSRSTITRNTNLNTVTLKMTSLTAADTATYFCAREDIYDYGGAFDPWGPGTLVTVST
VL: AYDMTQTPASVEVTVGGTVTIKCQASQGISSYLSWYQQKPGQPPKLLIYAATTLVSGVSSRFKGSGSGTQFTLTISGVECADAATYYCQQDYTTSNVDNTFGGGTEVVVKG
binds: all assays above

B4: IM-B10 (antibody, V domains shown)
VH: QSVKESEGGLFKPTDTLTLTCTVSGFSLSSYGVSWVRQAPGKGLEWIGSIWSGGTTDYASWAKSRSTITRNTNENTVTLKVTSLTAADTATYFCARGGYDYGYASNIWGPGTLVTVSS
VL: AYDMTQTPASVEVAVGGTVTIKCQASESISSYLSWYQQKPGQPPKLLIYRASTLASGVPSRFSGSGSGTEFTLTISDGQCDDAATYYCQQGYSVSNVDNIFGGGTEVVVKG
binds: all assays above
